Laboratory results as given in PMC5009362.
No constants are given. Whether binding was seen depends on the method and setting. In cells and extracts the contact can be indirect. Some entries that bind do so weakly or less than the wild type.

The chains behind the UniProt entries cited, without tags or fusion partners.
UniProt P11679: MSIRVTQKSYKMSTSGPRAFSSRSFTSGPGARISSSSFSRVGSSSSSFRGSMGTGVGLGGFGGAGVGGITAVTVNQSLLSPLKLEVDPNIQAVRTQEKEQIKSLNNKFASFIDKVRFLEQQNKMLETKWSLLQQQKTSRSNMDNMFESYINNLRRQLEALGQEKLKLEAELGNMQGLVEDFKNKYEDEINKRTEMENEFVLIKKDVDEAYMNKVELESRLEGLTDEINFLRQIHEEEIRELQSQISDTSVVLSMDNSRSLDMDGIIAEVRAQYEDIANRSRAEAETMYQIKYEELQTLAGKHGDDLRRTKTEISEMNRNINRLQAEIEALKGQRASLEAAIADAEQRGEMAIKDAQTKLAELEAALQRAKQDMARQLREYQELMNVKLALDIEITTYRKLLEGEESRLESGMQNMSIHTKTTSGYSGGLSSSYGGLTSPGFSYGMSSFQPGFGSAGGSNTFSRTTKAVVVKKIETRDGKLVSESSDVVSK

Target: T1, endogenous TRAF6 of mouse colon tissue (mouse (endogenous in colon tissue)) (UniProt P70196)
T1 sequence: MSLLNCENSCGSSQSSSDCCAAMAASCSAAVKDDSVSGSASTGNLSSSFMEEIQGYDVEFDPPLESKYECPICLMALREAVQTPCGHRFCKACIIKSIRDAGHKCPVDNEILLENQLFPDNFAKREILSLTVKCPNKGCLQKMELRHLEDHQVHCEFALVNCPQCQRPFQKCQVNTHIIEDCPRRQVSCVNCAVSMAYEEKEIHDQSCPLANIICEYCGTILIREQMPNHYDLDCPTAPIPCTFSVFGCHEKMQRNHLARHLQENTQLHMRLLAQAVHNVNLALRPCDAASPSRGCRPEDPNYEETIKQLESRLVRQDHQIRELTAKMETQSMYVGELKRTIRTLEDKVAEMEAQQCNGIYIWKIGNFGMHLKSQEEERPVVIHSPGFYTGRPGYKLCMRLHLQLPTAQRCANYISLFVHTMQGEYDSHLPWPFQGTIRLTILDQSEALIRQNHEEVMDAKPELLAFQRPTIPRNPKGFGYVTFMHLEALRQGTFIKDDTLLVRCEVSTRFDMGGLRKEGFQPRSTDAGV
Assay: co-IP; endogenous proteins in mouse colon tissue

- binding: binds
Substance: endogenous CK8 (Keratin 8) of mouse colon tissue (from UniProt P11679 1-490)
